# Reference: the supplement of paper PMC10849652
# Amino acid sequences for entries named in this document (tags omitted). A change or cut given only in a name is not applied to a line headed by its entry.
# UniProt Q7L5Y1: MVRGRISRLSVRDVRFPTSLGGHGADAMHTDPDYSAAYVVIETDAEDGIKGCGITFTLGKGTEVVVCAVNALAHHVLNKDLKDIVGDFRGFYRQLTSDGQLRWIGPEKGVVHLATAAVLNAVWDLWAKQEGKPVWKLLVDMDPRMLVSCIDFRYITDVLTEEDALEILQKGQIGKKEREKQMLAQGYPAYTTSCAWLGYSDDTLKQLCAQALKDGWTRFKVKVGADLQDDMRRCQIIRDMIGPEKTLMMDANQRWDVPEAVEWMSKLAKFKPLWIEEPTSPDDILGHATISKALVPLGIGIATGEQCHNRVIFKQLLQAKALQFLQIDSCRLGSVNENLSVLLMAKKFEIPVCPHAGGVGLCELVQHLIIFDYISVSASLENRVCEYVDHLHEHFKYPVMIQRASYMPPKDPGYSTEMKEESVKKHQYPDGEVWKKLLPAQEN
# UniProt Q14249: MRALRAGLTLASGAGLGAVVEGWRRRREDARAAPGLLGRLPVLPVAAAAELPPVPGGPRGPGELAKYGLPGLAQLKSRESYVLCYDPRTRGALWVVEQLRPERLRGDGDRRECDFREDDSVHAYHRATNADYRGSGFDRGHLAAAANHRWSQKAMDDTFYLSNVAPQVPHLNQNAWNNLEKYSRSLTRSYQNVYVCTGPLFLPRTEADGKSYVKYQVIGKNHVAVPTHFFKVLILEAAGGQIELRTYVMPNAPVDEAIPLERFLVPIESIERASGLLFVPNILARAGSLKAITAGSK
# UniProt Q9NPA8: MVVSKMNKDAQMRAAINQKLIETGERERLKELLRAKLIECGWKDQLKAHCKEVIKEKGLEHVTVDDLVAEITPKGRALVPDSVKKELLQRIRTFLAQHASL
# UniProt P38919, whole entry, looked up: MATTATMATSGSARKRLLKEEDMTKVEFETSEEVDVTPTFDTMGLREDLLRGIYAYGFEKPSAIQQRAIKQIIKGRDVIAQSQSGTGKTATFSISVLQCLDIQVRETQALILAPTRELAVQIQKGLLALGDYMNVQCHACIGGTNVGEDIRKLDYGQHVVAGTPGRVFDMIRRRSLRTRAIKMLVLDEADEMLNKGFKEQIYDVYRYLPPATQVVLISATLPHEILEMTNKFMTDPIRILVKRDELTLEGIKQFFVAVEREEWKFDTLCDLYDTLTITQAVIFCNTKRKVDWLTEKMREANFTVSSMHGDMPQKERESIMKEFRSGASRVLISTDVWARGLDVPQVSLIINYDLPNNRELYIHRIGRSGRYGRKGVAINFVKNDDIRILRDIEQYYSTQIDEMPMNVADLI
# UniProt Q14152, whole entry, looked up: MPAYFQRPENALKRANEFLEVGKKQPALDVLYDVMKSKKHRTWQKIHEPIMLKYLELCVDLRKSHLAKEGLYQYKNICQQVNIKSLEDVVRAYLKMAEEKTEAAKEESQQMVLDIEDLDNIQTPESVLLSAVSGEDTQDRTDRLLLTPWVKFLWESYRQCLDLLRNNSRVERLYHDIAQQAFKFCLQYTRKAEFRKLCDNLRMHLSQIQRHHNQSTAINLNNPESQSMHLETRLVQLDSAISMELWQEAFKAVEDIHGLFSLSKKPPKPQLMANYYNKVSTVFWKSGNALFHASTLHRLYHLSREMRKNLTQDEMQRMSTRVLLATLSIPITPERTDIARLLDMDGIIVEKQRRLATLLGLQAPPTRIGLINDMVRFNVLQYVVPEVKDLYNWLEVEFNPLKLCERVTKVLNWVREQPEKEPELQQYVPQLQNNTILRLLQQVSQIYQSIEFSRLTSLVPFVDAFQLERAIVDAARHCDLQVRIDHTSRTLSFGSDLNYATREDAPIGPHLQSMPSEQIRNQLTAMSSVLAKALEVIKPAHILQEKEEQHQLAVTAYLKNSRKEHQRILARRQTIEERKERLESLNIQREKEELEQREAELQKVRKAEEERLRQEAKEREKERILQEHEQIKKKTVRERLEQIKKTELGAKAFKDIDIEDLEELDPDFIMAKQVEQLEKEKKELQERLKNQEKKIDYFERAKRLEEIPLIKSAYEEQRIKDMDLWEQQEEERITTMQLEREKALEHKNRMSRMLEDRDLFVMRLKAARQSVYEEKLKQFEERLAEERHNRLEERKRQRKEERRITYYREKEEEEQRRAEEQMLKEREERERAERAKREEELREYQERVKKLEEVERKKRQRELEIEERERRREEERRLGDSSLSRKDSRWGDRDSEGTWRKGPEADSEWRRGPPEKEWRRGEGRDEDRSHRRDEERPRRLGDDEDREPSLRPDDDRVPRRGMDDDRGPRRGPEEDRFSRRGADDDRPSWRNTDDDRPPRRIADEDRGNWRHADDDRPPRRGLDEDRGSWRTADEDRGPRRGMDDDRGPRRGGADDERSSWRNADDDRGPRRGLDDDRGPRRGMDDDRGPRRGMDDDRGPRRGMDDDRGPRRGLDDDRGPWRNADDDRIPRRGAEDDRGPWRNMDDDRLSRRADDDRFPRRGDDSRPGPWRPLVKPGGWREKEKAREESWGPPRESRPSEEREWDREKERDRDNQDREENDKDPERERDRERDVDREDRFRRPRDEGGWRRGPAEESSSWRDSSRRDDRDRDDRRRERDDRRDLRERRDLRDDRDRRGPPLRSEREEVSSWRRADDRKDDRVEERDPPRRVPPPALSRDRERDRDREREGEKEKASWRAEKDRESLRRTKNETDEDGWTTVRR
# UniProt O95163: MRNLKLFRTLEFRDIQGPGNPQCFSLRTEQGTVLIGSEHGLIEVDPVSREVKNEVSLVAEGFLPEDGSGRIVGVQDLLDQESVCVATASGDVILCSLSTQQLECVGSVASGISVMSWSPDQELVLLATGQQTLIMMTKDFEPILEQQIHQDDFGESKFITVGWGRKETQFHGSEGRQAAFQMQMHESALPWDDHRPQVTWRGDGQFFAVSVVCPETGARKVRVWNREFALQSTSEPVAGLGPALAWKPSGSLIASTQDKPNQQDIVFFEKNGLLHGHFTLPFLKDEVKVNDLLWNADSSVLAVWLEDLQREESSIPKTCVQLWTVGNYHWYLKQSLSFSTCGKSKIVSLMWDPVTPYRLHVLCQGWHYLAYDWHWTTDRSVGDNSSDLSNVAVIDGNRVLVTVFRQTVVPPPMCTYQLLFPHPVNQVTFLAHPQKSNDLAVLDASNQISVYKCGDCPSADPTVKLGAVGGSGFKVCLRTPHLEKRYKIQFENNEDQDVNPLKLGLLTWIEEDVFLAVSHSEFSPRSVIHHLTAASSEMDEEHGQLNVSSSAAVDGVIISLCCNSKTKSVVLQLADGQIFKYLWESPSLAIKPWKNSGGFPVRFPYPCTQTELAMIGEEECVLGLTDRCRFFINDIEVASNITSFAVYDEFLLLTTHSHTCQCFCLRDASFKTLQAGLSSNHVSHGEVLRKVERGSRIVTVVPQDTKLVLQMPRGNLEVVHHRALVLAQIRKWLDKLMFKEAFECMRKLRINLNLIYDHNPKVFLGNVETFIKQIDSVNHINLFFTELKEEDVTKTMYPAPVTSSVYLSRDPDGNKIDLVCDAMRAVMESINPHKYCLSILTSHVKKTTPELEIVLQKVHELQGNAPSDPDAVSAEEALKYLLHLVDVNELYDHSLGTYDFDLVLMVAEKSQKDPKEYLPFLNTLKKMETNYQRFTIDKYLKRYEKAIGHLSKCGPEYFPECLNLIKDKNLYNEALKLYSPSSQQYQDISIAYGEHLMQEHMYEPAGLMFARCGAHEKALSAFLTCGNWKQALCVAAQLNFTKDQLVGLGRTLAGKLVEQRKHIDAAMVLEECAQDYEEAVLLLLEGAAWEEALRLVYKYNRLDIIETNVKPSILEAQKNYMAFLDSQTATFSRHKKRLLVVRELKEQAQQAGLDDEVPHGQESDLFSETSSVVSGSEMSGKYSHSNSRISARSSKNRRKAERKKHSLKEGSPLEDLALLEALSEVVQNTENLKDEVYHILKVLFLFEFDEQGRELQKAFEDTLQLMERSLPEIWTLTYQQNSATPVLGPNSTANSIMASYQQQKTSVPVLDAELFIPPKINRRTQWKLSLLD
# UniProt Q96KQ7: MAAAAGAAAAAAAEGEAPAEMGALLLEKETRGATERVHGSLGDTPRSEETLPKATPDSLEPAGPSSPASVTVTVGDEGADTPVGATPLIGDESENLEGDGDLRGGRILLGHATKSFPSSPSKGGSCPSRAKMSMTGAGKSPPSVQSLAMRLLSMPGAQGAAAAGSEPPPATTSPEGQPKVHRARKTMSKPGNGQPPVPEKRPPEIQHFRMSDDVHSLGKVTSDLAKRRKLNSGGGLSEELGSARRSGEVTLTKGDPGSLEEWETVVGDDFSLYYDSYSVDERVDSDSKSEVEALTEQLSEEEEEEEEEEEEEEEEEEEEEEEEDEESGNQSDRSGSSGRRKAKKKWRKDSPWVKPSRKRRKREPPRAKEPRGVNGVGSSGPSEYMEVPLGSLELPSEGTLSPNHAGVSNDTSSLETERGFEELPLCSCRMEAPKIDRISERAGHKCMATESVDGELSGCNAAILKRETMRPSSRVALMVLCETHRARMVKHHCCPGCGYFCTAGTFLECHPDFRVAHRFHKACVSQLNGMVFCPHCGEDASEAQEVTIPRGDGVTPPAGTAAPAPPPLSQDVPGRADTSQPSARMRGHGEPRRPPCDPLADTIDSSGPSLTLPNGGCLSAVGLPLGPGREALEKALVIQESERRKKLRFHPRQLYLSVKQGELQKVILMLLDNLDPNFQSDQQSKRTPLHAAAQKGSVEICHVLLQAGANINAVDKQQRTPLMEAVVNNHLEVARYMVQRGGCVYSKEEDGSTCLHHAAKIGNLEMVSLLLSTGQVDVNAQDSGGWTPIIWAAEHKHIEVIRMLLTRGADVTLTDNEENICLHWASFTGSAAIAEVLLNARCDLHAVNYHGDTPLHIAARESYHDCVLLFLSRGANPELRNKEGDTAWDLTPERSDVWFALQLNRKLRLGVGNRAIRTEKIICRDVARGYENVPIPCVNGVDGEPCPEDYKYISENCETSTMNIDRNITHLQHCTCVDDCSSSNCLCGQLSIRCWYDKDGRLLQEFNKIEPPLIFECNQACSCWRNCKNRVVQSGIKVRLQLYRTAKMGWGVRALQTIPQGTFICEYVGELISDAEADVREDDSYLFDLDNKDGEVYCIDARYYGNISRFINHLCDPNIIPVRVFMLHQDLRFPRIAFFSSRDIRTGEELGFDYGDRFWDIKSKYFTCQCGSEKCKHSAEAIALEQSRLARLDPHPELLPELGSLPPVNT
# UniProt P06730, whole entry, looked up: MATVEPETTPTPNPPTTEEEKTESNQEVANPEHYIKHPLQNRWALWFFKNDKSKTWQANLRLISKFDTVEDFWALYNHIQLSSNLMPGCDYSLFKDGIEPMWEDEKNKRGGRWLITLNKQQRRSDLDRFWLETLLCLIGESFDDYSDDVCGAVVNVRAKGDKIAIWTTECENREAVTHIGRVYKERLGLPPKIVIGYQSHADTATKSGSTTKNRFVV
# UniProt P60842, whole entry, looked up: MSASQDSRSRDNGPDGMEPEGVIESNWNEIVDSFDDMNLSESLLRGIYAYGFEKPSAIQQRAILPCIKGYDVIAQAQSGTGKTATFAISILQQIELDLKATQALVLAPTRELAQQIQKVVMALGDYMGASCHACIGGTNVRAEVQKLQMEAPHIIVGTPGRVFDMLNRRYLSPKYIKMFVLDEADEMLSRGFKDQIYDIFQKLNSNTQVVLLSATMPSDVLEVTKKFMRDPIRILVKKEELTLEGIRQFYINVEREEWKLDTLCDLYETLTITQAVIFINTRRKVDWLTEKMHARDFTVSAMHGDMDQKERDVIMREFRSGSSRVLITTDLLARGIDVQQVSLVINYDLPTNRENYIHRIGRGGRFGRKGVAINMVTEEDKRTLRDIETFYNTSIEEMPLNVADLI
# UniProt Q96EB1: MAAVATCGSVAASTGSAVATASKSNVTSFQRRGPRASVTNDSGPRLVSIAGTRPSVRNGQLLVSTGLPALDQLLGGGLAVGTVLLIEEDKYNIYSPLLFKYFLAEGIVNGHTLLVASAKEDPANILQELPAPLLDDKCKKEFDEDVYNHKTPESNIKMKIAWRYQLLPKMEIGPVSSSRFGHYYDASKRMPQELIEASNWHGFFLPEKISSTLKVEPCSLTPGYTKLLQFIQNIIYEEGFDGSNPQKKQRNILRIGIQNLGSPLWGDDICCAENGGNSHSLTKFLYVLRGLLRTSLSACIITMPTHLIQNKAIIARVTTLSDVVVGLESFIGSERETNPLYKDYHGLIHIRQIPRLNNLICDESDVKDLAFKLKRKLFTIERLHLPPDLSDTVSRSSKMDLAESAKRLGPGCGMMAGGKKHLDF
# UniProt P29692: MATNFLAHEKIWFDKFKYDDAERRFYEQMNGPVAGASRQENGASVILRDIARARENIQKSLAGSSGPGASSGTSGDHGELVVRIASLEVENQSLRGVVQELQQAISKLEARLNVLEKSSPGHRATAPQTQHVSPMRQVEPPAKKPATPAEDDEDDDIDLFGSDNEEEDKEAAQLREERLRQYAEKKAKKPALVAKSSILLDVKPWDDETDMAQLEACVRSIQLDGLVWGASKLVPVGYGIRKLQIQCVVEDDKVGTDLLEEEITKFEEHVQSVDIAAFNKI
# The list shows a part of the results.
# Key:
# Assay in all cases: log2 fold change, soluble protein after heating vs DMSO (PISA); higher = thermal stabilisation; K562 cells, 10 uM, 30 min; active = over 0.2 and 3.5 SD of the protein, either way, in both replicates (recomputed)
# bafetinib = compound: Cc1ccc(NC(=O)c2ccc(CN3CC[C@H](N(C)C)C3)c(C(F)(F)F)c2)cc1Nc1nccc(-c2cncnc2)n1 [bafetinib]
# Method in brief: (§1)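 K562 cells at 2×10^6 cells/mL were treated with 10 μM compound for 30 min. Aliquots were heated for 3 min across 48°C-58°C, pooled, and extracted in PBS with 0.5% NP-40 at 4°C; soluble protein was the supernatant after 21,000xg for 90 min. Soluble protein was quantified by TMTpro 16plex LC-MS/MS with channel sums equalised, and reported as log2 fold change in thermal stability against DMSO controls, with values from duplicates.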
# [1] = compound: Cc1cccc(CC(=O)N2CCc3c2ccc(-c2cn(C)c4ncnc(N)c24)c3F)n1
# Method in brief: as §1
# nilotinib = compound: Cc1cn(-c2cc(NC(=O)c3ccc(C)c(Nc4nccc(-c5cccnc5)n4)c3)cc(C(F)(F)F)c2)cn1 [nilotinib]
# Method in brief: as §1
# [2] = compound: Cc1nc(Nc2n[nH]c3c2CN(C(=O)N[C@H](CN(C)C)c2ccccc2)C3(C)C)c2sccc2n1
# Method in brief: as §1
# dasatinib = compound: Cc1nc(Nc2ncc(C(=O)Nc3c(C)cccc3Cl)s2)cc(N2CCN(CCO)CC2)n1 [dasatinib]
# Method in brief: as §1
# [3] = compound: Cc1ncc(-c2ccnc(Nc3ccc(S(C)(=O)=O)cc3)n2)n1C(C)C
# Method in brief: as §1
# [4] = compound: Cn1cc(-c2ccc3c(c2)CCN3C(=O)Cc2cccc(C(F)(F)F)c2)c2c(N)ncnc21
# Method in brief: as §1
# [5] = compound: Cn1cc(-c2ccc3nnc(C(F)(F)c4ccc5ncccc5c4)n3n2)cn1
# Method in brief: as §1
# tipifarnib = compound: Cn1cncc1[C@@](N)(c1ccc(Cl)cc1)c1ccc2c(c1)c(-c1cccc(Cl)c1)cc(=O)n2C [tipifarnib]
# Method in brief: as §1
# mubritinib = compound: FC(F)(F)c1ccc(/C=C/c2nc(COc3ccc(CCCCn4ccnn4)cc3)co2)cc1 [mubritinib]
# Method in brief: as §1
Target,log2 fold change (bafetinib),log2 fold change [1],log2 fold change (nilotinib),log2 fold change [2],log2 fold change (dasatinib),log2 fold change [3],log2 fold change [4],log2 fold change [5],log2 fold change (tipifarnib),log2 fold change (mubritinib)
ENPP2 isoform 2 (UniProt Q13822),inactive: -0.177,,,,,,,,,
ENO1 isoform 2 (UniProt P06733),inactive: -0.08,inactive: -0.047,inactive: 0.121,inactive: 0.053,inactive: 0.038,inactive: 0.075,inactive: 0.182,inactive: 0.001,inactive: -0.137,inactive: 0.098
EIF4A2 isoform 2 (UniProt Q14240),inactive: 0.028,inactive: -0.009,inactive: -0.053,inactive: -0.046,inactive: -0.104,inactive: -0.029,inactive: 0.017,inactive: 0.013,inactive: -0.021,inactive: -0.04
ENOSF1 (UniProt Q7L5Y1),inactive: -0.016,inactive: -0.02,inactive: 0,inactive: 0.043,inactive: -0.01,inactive: -0.031,inactive: 0.056,inactive: 0,inactive: 0.022,inactive: 0.026
ENDOG (UniProt Q14249),inactive: -0.024,inactive: 0.057,inactive: -0.058,inactive: 0.035,inactive: -0.092,inactive: 0.014,inactive: 0.021,inactive: -0.003,inactive: -0.043,inactive: 0.121
EFL1 (UniProt Q7Z2Z2),inactive: -0.043,inactive: -0.014,inactive: -0.147,inactive: -0.052,inactive: -0.077,inactive: 0.003,inactive: 0.021,inactive: 0.028,inactive: -0.026,inactive: -0.109
ENY2 (UniProt Q9NPA8),inactive: -0.016,inactive: -0.003,inactive: -0.014,inactive: 0.005,inactive: 0.04,inactive: 0,inactive: 0.076,inactive: 0.014,inactive: -0.059,inactive: 0.002
EIF4A3 (UniProt P38919),inactive: 0.045,inactive: -0.046,inactive: 0.049,inactive: -0.002,inactive: 0.01,inactive: 0.082,inactive: 0.002,inactive: 0.012,inactive: -0.019,inactive: 0.02
EIF3J (UniProt O75822),inactive: -0.067,active: 0.266,inactive: 0.001,inactive: -0.019,inactive: -0.018,inactive: 0.008,inactive: 0.022,inactive: -0.014,inactive: -0.013,inactive: 0.033
EIF3F (UniProt O00303),inactive: 0.077,inactive: 0.002,inactive: -0.04,inactive: -0.058,inactive: -0.051,inactive: 0.03,inactive: -0.029,inactive: -0.07,inactive: -0.053,inactive: -0.021
EOGT (UniProt Q5NDL2),inactive: -0.009,inactive: -0.025,inactive: -0.044,inactive: 0.055,inactive: -0.052,inactive: -0.005,inactive: -0.082,inactive: -0.038,inactive: 0.029,inactive: -0.021
ENGASE (UniProt Q8NFI3),inactive: -0.066,inactive: -0.086,inactive: -0.03,inactive: -0.047,inactive: -0.098,inactive: -0.049,inactive: 0.021,inactive: -0.002,inactive: 0.033,inactive: 0.026
EIF3A (UniProt Q14152),inactive: 0.093,inactive: 0.055,inactive: -0.103,inactive: -0.049,inactive: -0.154,inactive: 0.071,inactive: -0.055,inactive: -0.054,inactive: -0.134,inactive: -0.051
ELP1 (UniProt O95163),inactive: -0.015,inactive: 0.065,inactive: 0.006,inactive: 0,inactive: -0.014,inactive: 0.006,inactive: 0.022,inactive: 0.014,inactive: -0.004,inactive: 0.023
ENO3 (UniProt P13929),inactive: 0.006,inactive: 0.07,inactive: 0.002,inactive: 0.062,inactive: 0,inactive: -0.01,inactive: 0.042,inactive: -0.044,inactive: -0.095,inactive: -0.052
ENSA isoform 3 (UniProt O43768),inactive: -0.073,inactive: -0.023,inactive: 0.053,inactive: -0.061,inactive: 0.052,inactive: -0.017,inactive: -0.03,inactive: -0.078,inactive: 0.074,inactive: 0.028

Target,log2 fold change (bafetinib),log2 fold change [1],log2 fold change (nilotinib),log2 fold change [2],log2 fold change (dasatinib),log2 fold change [3],log2 fold change [4],log2 fold change [5],log2 fold change (tipifarnib),log2 fold change (mubritinib)
EMG1 (UniProt Q92979),inactive: 0.032,inactive: -0.02,inactive: -0.033,inactive: 0.092,inactive: 0.115,inactive: 0.038,inactive: -0.047,inactive: -0.061,inactive: 0.018,inactive: -0.01
EIF2AK4 (UniProt Q9P2K8),inactive: 0.055,inactive: 0.023,inactive: -0.045,inactive: -0.113,inactive: -0.233,inactive: 0.004,inactive: -0.262,inactive: -0.029,inactive: -0.046,inactive: 0.087
EHMT2 (UniProt Q96KQ7),inactive: -0.018,inactive: 0.002,inactive: 0.016,inactive: -0.053,inactive: -0.119,inactive: -0.027,inactive: -0.02,inactive: -0.033,inactive: 0.103,inactive: 0.072
EIF3C (UniProt Q99613),inactive: 0.066,inactive: 0.116,inactive: -0.123,inactive: -0.082,inactive: -0.116,inactive: 0.051,inactive: -0.032,inactive: -0.104,inactive: -0.1,inactive: -0.077
ENTPD4 (UniProt Q9Y227),inactive: 0.034,inactive: 0.14,,,,,,,,
EIF4E isoform 2 (UniProt P06730),inactive: 0.012,inactive: 0.05,inactive: 0.199,inactive: -0.072,inactive: 0.013,inactive: 0.272,inactive: 0.125,inactive: 0.082,inactive: -0.029,inactive: 0.045
EIF4A1 (UniProt P60842),inactive: 0.032,inactive: 0.014,inactive: -0.135,inactive: -0.063,inactive: -0.114,inactive: -0.047,inactive: 0.036,inactive: -0.022,inactive: -0.058,inactive: -0.08
EIF3B isoform 2 (UniProt P55884),inactive: 0.09,inactive: 0.112,inactive: -0.101,inactive: -0.054,inactive: -0.046,inactive: 0.023,inactive: -0.111,inactive: -0.069,inactive: -0.05,inactive: -0.066
EEF1E1 (UniProt O43324),inactive: -0.018,inactive: 0.051,inactive: -0.008,inactive: -0.024,inactive: -0.079,inactive: -0.002,inactive: 0.024,inactive: -0.076,inactive: -0.083,inactive: 0.032
EGFL7 (UniProt Q9UHF1),inactive: 0.083,inactive: 0.003,,,,,,,,
ELP4 (UniProt Q96EB1),inactive: -0.074,inactive: -0.009,inactive: -0.008,inactive: 0.02,inactive: 0.047,inactive: 0.024,inactive: 0.01,inactive: -0.006,inactive: -0.029,inactive: 0.042
EIF5 (UniProt P55010),inactive: -0.029,inactive: 0.002,inactive: -0.012,inactive: -0.013,inactive: -0.111,inactive: 0.014,inactive: 0.034,inactive: -0.002,inactive: -0.055,inactive: 0.049
ELL (UniProt P55199),inactive: 0.237,inactive: -0.014,inactive: -0.331,inactive: -0.196,inactive: -0.133,inactive: -0.12,inactive: -0.036,inactive: 0.014,,
EIF5B (UniProt O60841),inactive: 0.093,inactive: 0.073,inactive: -0.018,inactive: 0.025,inactive: -0.01,inactive: 0.021,inactive: -0.003,inactive: -0.052,inactive: -0.039,inactive: 0.014
EEF1D isoform 2 (UniProt P29692),inactive: 0.025,inactive: -0.011,inactive: -0.066,inactive: -0.01,inactive: -0.051,inactive: 0,inactive: -0.007,inactive: -0.044,inactive: -0.103,inactive: 0.081
EEF1A2 (UniProt Q05639),inactive: 0.003,inactive: -0.021,inactive: -0.033,inactive: 0.032,inactive: -0.065,inactive: -0.018,inactive: 0.067,inactive: 0.039,inactive: -0.017,inactive: 0.013

# Two consecutive records out of the list so far, quoted:
Target,log2 fold change (bafetinib),log2 fold change [1],log2 fold change (nilotinib),log2 fold change [2],log2 fold change (dasatinib),log2 fold change [3],log2 fold change [4],log2 fold change [5],log2 fold change (tipifarnib),log2 fold change (mubritinib)
EOGT (UniProt Q5NDL2),inactive: -0.009,inactive: -0.025,inactive: -0.044,inactive: 0.055,inactive: -0.052,inactive: -0.005,inactive: -0.082,inactive: -0.038,inactive: 0.029,inactive: -0.021
ENGASE (UniProt Q8NFI3),inactive: -0.066,inactive: -0.086,inactive: -0.03,inactive: -0.047,inactive: -0.098,inactive: -0.049,inactive: 0.021,inactive: -0.002,inactive: 0.033,inactive: 0.026
